Some of the results follow. For some of these results: Construct or isoform of the protein are uncertain.

Drawing on PMC5996148, this text covers binding signal for 1 sequence.

Among the test systems are C4orf19 (human); C4orf35 (human); C5orf3 (human); C6orf106 (human); C6orf108 (human); C6orf118 (human); C6orf145 (human); C6orf206 (human); C6orf49 (human).
Common to all, as to assay: protein microarray (ProtoArray v5.0), streptavidin-Alexa Fluor 647
What all share (conditions): 3'-biotin; 20 mM Tris (pH 7.5), 5 mM MgCl2, 100 mM KCl, 0.1% Tween-20, A/T-rich and random oligonucleotide blockers; temperature not stated; high values mean tight binding

The target in a further assay is T1, C6orf130 (UniProt Q9Y530).
T1 sequence: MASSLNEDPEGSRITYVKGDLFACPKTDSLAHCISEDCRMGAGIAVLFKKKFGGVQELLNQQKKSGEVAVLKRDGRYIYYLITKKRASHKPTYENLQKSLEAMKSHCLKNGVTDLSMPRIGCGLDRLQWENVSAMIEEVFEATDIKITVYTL

For the sequence “GGGGACAGGGGTATGGGGAGGGG [G4-3 biotinylated (CtG)]”, the binding signal in the assay on C4orf19 (human) was -0.315 z-score; in the assay on C4orf35 (human), -0.332 z-score; with C5orf3 (human), -0.339 z-score; in the assay with C6orf106 (human), -0.323 z-score; with C6orf108 (human) it was -0.31 z-score; with C6orf118 (human), -0.333 z-score. Also, the binding signal with C6orf130 is 5.72 z-score; in the assay with C6orf145 (human) it was -0.332 z-score; in the assay with C6orf206 (human), -0.33 z-score; with C6orf49 (human) it was -0.342 z-score.
